Results as given in US20210238265A1 (Biogen, published 2021).
These are yes or no findings as the source states them, for the method shown. Some results given as binding are weak or reduced against the parent protein; the word gives no strength. One block for each binder: values may come before it.

Chains of the proteins cited; added tags and fusions are not shown. Lines headed by an entry give the natural chain unless they say otherwise; changes in a name come on top.
UniProt P10636: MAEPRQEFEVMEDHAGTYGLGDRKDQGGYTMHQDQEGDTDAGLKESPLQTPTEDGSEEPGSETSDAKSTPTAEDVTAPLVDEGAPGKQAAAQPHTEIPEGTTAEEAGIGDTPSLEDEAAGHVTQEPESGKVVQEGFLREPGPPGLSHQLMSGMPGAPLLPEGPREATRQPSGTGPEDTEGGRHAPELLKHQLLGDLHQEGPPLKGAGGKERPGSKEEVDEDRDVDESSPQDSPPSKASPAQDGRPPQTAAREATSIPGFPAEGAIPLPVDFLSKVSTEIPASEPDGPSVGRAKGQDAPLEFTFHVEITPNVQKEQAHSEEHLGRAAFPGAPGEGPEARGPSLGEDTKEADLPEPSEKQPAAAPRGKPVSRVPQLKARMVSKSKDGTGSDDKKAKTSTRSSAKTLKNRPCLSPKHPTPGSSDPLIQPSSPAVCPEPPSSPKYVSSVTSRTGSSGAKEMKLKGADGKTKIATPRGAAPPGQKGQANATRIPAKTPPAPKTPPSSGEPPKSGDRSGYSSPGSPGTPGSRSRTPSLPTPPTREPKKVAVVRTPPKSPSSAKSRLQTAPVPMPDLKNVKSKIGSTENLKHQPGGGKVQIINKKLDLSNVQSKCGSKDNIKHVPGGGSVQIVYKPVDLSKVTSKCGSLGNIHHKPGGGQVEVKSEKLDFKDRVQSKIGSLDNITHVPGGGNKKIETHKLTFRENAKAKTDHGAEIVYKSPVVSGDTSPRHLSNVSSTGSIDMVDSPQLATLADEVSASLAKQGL

How the values were obtained:
[1] = biological target: PHFTau extracted from AD brain (paired helical filaments containing pathologically phosphorylated tau filaments) (human) (UniProt P10636); assay: Western blot
[2] = biological target: Human tau P301L (pathological tau aggregates in TauP301L transgenic mouse brain) (human) (UniProt P10636); assay: immunohistochemistry (DAB) on transgenic mouse brain sections
[3] = biological target: Human tau P301L (pathological tau aggregates in TauP301L transgenic mouse brain) (human) (UniProt P10636); assay: immunohistochemistry on transgenic mouse brain sections

binding [1]: binds
B1: Recombinant human antibody NI-105.24B2 (antibody, V domains shown)
VH: QVQLVQSGAEVKKPGASVKVSCKASGYTFVNYIIHWVRQAPGQGLEWMGIINPNGGNTSYAEKFQARVTLTSDTSTSTVYMDLSSLTSEDTAVYYCAVLSPSNPWGQGTTVTVSS
VL: SYELTQPPSVSVSPGQTAGITCSGDALPKQFVYWYQKKPGQAPVLLIYKDTERPSRIPERFSGSTSGTTVALTINGVQAEDEADYYCQSADRSGALWVFGGGTKLTVL

binding [2]: binds
binding [3]: binds
B2: Recombinant human antibody NI-105.4E4 (antibody, V domains shown)
VH: EVQLVESGGGLVQPGGSLKLSCAASGFNFNISAIHWVRQASGKGLEWVGRIRSKSHNYATLYAASLKGRFTLSRDDSRNTAYLQMSSLQTEDMAVYYCTVLSANYDTFDYWGQGTLVTVSS
VL: SYELTQPPSVSVSPGQTARISCFGDTLPKQYTYWYQQKPGQAPVLVIYKDTERPSGIPERFSGSSSGTTVTLTISGVQAEDEADYYCLSADNSATWVFGGGTKVTVL
